Measurements as given in PubChem BioAssay AID2685 (National Center for Advancing Translational Sciences (NCATS), 2010).
The other results are listed elsewhere or left out. Shown are side measurements of this screen, not its main read-out; they come without a call. Compounds called inactive in the main read-out are mostly missing here. Words in brackets tell the shape of the fitted curve; partial curves, single points and poor fits give uncertain potencies.

Assay: qHTS Assay for Lipid Storage Modulators in Drosophila S3 Cells;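 on cell number change: cells counted by Cell Tracker Red CMTPX staining in the red channel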
Details: BODIPY lipid droplet fluorescence, 18-24 h; for cell number change: measured here: cell count max response, cells fed with added oleic acid
In short: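 Drosophila S3 cells loaded with oleic acid (400 uM, as added) and compounds at several concentrations; lipid droplets imaged by 488-nm laser-scanning cytometry, 500–530 nm intensity and object ratio to cell channel. Percent activity normalized to 20 uM Triacsin C.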

[1] = measured here: lipid fluorescence (Fed channel) AC50, cells fed with added oleic acid
[2] = measured here: cell number channel AC50, cells fed with added oleic acid

## O=Cc1ccccc1OCc1ccc2c(c1)OCO2
  cell number change: 14.4%

## C/C(=N/Nc1ccc(C)cc1)C1(C)N(O)C(C)(C)C(c2ccco2)=[N+]1[O-] (configuration not stated)
[1]
  AC50: 0.146 µM [rising, full curve, poor fit]

## Cc1ccccc1C(=O)Nc1c2c(nn1C(C)(C)C)CS(=O)(=O)C2
  cell number change: 7.12%
[1]
  AC50: 2.06 µM [rising, partial curve]

## Cc1nonc1OC(C)CNc1ccc([N+](=O)[O-])cc1 (configuration not stated)
  cell number change: -11.1%
[2]
  AC50: 1.3 µM [rising, partial curve]

## COc1cc2c(cc1OC)CN(C(=O)C1CCCN(C(=O)c3ccc(Cl)cc3)C1)CC2 (configuration not stated)
  cell number change: -27.1%
[1]
  AC50: 3.26 µM [falling, partial curve]

## O=C(Nc1ccc2c(c1)OCO2)NC1CCN(Cc2ccccc2)CC1
[2]
  AC50: 0.517 µM [rising, full curve]
[1]
  AC50: 0.651 µM [rising, full curve]

## COc1ccc(NC(=O)COC(=O)c2ccc3ccccc3n2)cc1
  cell number change: -17.3%
[1]
  AC50: 29.1 µM [rising, single point]

## COc1cc(C(=O)N/N=C(\C)c2ccc(NC(=O)Cc3ccccc3)cc2)ccc1O
  cell number change: -2.6%

## O=C(COc1coc(CN2CCN(c3ccccc3)CC2)cc1=O)Nc1ccccc1F
  cell number change: 12.5%

## O=C(CN1C(=O)C2C3C=CC(C3)C2C1=O)NCCC1=CCCCC1 (configuration not stated)
[2]
  AC50: 6.51 µM [rising, single point]

## Clc1cc(Cl)c(Cl)cc1Cl
  cell number change: 21.4%
[1]
  AC50: 0.0731 µM [rising, full curve, poor fit]

## Cc1cccc(C(=O)Nc2ccc(C(=O)N/N=C/c3cccc(C)n3)cc2)c1
  cell number change: -2.61%

## COc1cc(C2C(C(=O)c3ccc(C)o3)=C(O)C(=O)N2c2cc(C)on2)cc(Br)c1O (configuration not stated)
[1]
  AC50: 2.91 µM [falling, partial curve, poor fit]

## Cc1ccc(S(=O)(=O)N2C(=O)C(C)SC2=Nc2ccccc2)cc1 (configuration not stated)
  cell number change: 0.943%
[1]
  AC50: 0.058 µM [falling, full curve, poor fit]

## N=Nc1c(O)n(CC(=O)Nc2ccccc2)c2ccccc12
  cell number change: -12.6%
[2]
  AC50: 4.11 µM [falling, single point]
[1]
  AC50: 1.16 µM [falling, single point]

## COc1ccc(C(=O)/C=C/Nc2cc(C)on2)c(OC)c1
  cell number change: 9.25%
[1]
  AC50: 0.651 µM [rising, full curve]

## O=c1cc(O)c2sc(Nc3ccc(F)c(Cl)c3)nc2[nH]1
  cell number change: 8.83%
[2]
  AC50: 2.91 µM [rising, single point]

## COc1cc(S(=O)(=O)NCCN2CCOCC2)ccc1-n1cnnn1
  cell number change: -17.2%
[1]
  AC50: 0.00461 µM [falling, full curve, poor fit]

## c1ccc2c3n(nc2c1)CCCCO3
  cell number change: 10.7%
[2]
  AC50: 0.116 µM [falling, single point]

## CCc1ccc(-c2cc(C)no2)cc1S(=O)(=O)N1CCN(c2ccccc2F)CC1
  cell number change: 27.1%
[1]
  AC50: 9.2 µM [rising, partial curve]

## O=c1c2ccccc2nc(-c2ccco2)n1Cc1ccccc1
  cell number change: -21.8%
[1]
  AC50: 23.1 µM [rising, partial curve]

## CCOC(=O)c1[nH]c2cc3c(cc2c1NC(=O)CN1CCc2ccccc2C1)OCO3
  cell number change: -20.4%
[1]
  AC50: 2.31 µM [falling, single point]

## CC12CCC(C(=O)Nc3nc4ccc(Br)cc4s3)(OC1=O)C2(C)C (configuration not stated)
  cell number change: -49.5%

## O=C(Nc1ccccc1C(=O)NCc1ccc(Cl)cc1)c1ccco1
  cell number change: -15.9%
[1]
  AC50: 0.58 µM [rising, single point]

## CCN(C(=O)COc1cccnc1[N+](=O)[O-])C1CCS(=O)(=O)C1 (configuration not stated)
  cell number change: -17.8%
[1]
  AC50: 0.00651 µM [falling, full curve, poor fit]

## CCn1c(C)cc(/C=C2/NC(=O)N(Cc3ccccc3F)C2=O)c1C
[1]
  AC50: 0.651 µM [rising, full curve, poor fit]

## O=C(Nc1ccccn1)C1(c2cccs2)CCOCC1
  cell number change: -7.85%
[1]
  AC50: 14.6 µM [rising, partial curve, poor fit]

## Cc1ccc(C)c(NC(=O)CN(C)C(=O)Cc2coc3cc(C)c(C)cc23)c1
[2]
  AC50: 0.082 µM [falling, full curve]

## O=C(NC(=S)N1CCc2ccccc21)c1ccccc1Cl
  cell number change: 9.46%

## CC(C(=O)Nc1cccc([N+](=O)[O-])c1)[n+]1ccccc1 (configuration not stated)
  cell number change: -19.5%
[1]
  AC50: 20.6 µM [falling, single point]

## O=C(Nc1cccc(Cl)c1)c1ccc(F)c(S(=O)(=O)N2CCN(c3ccccn3)CC2)c1
  cell number change: 12.3%

## COc1ccc(NC(=S)N2CCC(c3nc4ccccc4[nH]3)CC2)c(OC)c1
[2]
  AC50: 2.31 µM [rising, partial curve]

## CCCCC(=O)Nc1ccccc1CC
  cell number change: 24.1%
[2]
  AC50: 2.59 µM [rising, single point]

## Cc1cc(C)n(-c2nc(NCCCN(C)C)c3c4c(sc3n2)COC(C)(C)C4)n1
  cell number change: 18.1%

## O=C(CN1CCc2ccccc2C1)Nc1ccc(OC(F)(F)F)cc1
  cell number change: -22.6%
[1]
  AC50: 29.1 µM [falling, single point]

## Cc1ccc(OCCC(=O)O)cc1
  cell number change: -2.44%
[1]
  AC50: 0.0058 µM [falling, full curve, poor fit]

## CSc1nc(-c2ccc(Cl)cc2Cl)[nH]c(=O)c1C#N
[1]
  AC50: 16.4 µM [falling, partial curve, poor fit]

## O=c1c2ccccc2c(C=NCCc2ccccc2)c(O)n1Cc1ccccc1
  cell number change: 69.7%
[1]
  AC50: 18.4 µM [rising, partial curve]

## O=C(N/C(=C\c1ccc(Cl)cc1)C(=O)N1CCOCC1)c1ccco1
  cell number change: 15.1%
[1]
  AC50: 29.1 µM [falling, single point]

## C=CCN(C(=O)c1csnn1)C(C(=O)NC1CCCC1)c1ccc(F)cc1 (configuration not stated)
  cell number change: -2.56%

## Cc1ccc(O)c(C(CC(=O)NCc2ccco2)c2ccccc2)c1 (configuration not stated)
  cell number change: -16.1%
[1]
  AC50: 6.51 µM [falling, single point]

## COc1ccc(/C=C/C(=O)Nc2sc(Cc3ccccc3)c(C)c2C(N)=O)cc1
  cell number change: 13.2%
[1]
  AC50: 3.66 µM [rising, single point]

## COC(=O)c1nn(-c2ccccc2)c(=O)cc1O
  cell number change: -24.1%

## O=C(CSc1ccccc1C(=O)O)Nc1cccc(C(=O)O)c1
  cell number change: 5.15%
[1]
  AC50: 18.4 µM [falling, single point]
